Source: article PMC5268481
Results are given in words; binding and its absence hold for the method and conditions named. In cells and extracts the contact can be indirect. Some results given as binding are weak or reduced against the parent protein; the word gives no strength. Where a sequence is shown, tags or fusion partners need not be part of it.

Protein sequences, listed by entry. Tags and fused reporters are not part of them. Lines headed by an entry give the natural chain unless they say otherwise; changes in a name come on top.
UniProt Q9DC28: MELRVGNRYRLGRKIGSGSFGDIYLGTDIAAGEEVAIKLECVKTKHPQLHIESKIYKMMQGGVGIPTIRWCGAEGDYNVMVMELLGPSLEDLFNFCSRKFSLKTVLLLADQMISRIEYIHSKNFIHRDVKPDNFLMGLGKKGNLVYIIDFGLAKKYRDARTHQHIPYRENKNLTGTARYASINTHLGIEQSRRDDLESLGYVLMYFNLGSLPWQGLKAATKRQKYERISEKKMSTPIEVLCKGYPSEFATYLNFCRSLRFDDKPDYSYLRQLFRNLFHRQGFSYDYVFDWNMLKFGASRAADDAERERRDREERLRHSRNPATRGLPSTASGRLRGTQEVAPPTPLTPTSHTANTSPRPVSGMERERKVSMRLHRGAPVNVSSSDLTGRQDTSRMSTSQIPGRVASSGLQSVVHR

Biological target: T1, FLAG-Chk1 (UniProt O14757)
T1 sequence: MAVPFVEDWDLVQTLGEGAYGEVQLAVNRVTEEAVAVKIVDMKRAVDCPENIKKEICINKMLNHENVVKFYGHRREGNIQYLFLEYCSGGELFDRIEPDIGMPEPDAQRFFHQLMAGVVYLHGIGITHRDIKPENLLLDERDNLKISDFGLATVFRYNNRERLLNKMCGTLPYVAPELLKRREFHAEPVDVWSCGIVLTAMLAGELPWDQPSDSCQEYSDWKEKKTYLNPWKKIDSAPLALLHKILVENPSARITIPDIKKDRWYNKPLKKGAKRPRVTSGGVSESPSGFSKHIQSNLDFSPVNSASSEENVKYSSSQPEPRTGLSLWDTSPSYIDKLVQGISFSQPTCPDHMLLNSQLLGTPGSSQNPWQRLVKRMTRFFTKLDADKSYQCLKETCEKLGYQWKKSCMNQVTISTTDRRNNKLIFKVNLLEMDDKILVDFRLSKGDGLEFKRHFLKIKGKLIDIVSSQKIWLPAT
Assay: co-IP; HEK293 cells transfected with FLAG-Chk1 and Myc-CK1δ derivatives, lysed 48 h later; 1 mg pre-cleared lysate with FLAG antibody on protein A/G-agarose overnight at 4°C in IP buffer (20 mM Tris-HCl pH 8.0, 10 mM EDTA, 1 mM EGTA, 150 mM NaCl, 0.2% Triton-X, 0.2% Nonidet P-40); western blotting

binding, binds:
Myc-CK1δ KD (kinase domain only) (from UniProt Q9DC28 9-277) (domain or fragment)
6xMyc-mouse CK1δ kinase-dead (K38A) derivative (from UniProt Q9DC28 1-415) (enzyme)
6xMyc-mouse CK1δ wild type (WT), full length (from UniProt Q9DC28 1-415) (enzyme)
